Literature values, collected in US20230255943A1, “MMP-9 AND MMP-12 INHIBITION FOR TREATING SPINAL CORD INJURY OR RELATED INJURY TO NEUROLOGICAL TISSUE” (The University of Birmingham, priority 2020, published 2023).
At least one structure is not confirmed: it was looked up by name or label, or the drawing left a doubt.

System: MMPs
Conditions: description in figure legend and Table 1; cited from earlier work

In the case of `CN(C)c1ccc(O)c2c1C[C@H]1C[C@H]3[C@H](N(C)C)C(O)=C(C(N)=O)C(=O)[C@@]3(O)C(O)=C1C2=O` [Minocycline], the “effect on MMP activity” value is listed as “no effect on MMP activity”.
